Literature values in patent US20130236944A1, “METHODS FOR THE INACTIVATION OF ANTIBIOTICS” (priority 2011, published 2013).
At least one compound was matched to its structure with a doubt left.

Conditions: Boxall et al. (2005)

CN(C)[C@@H]1C(O)=C(C(N)=O)C(=O)[C@@]2(O)C(O)=C3C(=O)c4c(O)cccc4[C@@](C)(O)[C@H]3[C@H](O)[C@@H]12 [oxytetracycline]
persistence in waters: 42 to 46 days
